Data reported in paper PMC6925144, “A prospective compound screening contest identified broader inhibitors for Sirtuin 1” (Scientific Reports, 2019).
Over roughly 3,200 compounds, “TSA(with NAD+) / Primary screening (TSA) / delta Tm (K)” has its median near -0.04; the highest 2% begin near 0.37. The list shows a part of the results.

By UniProt entry, the sequences of proteins in these tests, tags left out. Residues count along the entry.
UniProt Q96EB6, 2-747 limits assumed: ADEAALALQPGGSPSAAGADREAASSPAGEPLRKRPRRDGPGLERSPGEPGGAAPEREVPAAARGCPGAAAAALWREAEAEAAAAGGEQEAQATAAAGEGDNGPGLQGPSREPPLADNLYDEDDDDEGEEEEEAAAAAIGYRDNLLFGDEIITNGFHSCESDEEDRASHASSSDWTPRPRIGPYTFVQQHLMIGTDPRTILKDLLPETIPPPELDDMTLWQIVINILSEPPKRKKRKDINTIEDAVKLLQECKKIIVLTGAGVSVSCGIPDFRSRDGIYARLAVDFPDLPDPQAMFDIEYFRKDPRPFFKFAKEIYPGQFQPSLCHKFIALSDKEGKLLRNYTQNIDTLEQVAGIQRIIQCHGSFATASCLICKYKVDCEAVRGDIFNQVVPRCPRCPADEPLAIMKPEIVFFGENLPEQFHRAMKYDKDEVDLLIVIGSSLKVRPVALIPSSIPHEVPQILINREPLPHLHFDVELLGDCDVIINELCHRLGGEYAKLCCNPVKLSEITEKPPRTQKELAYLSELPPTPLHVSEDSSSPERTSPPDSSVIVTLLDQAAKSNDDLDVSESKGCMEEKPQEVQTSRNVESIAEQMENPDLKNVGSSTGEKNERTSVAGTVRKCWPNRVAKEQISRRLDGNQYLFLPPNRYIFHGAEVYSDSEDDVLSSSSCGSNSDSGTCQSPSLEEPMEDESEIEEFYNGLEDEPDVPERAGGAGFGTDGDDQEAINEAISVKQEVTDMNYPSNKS

biological target: NAD-dependent deacetylase Sirtuin 1 (human, UniProt Q96EB6); test: primary screen, delta tm; design: single well (n = 1, as 'the same TSA'); conditions: 10 µM
Protocol: A total of 3,192 compounds extracted from the proposed lists were first screened by thermal shift assay (TSA), which determined a melting temperature shift (ΔTm) of Sirtuin 1 upon the addition of a test compound at a concentration of 10 µM (n = 1) with primary hit criteria of ΔTm > 0.45 K or ΔTm < −1.5 K. Primary hits (48 compounds) were retested in the same assay at three concentrations (5, 10, 20 µM, n = 4) for hit confirmation and for dose-dependency check. Secondary hits (41 compounds) were checked their selectivity for Sirtuin 1 based on counterscreening on unrelated protein targets (bovine carbonic anhydrase (CA) and recombinant SH2 domain of hABL1 kinase (ABL1)) at three different concentrations (5, 10, 20 µM, n = 4), which yielded 38 hit compounds, hereafter referred to as TSA hits. The TSA screening above was conducted in the absence of NAD+. As noted, the structure of Sirtuin 1 is different in the presence of NAD+ and substrate. The chemical profile of TSA hits found from the different conditions could be different. […] As a result, 39 TSA hits were found.

Structure (SMILES)	TSA(with NAD+) / Primary screening (TSA) / delta Tm (K)
CCc1cccc2c(C(=O)N3CCN(C4CCCC4O)CC3)c[nH]c12 (stereo not drawn)	-0.28
O=C(COC(=O)C12CC3CC(C1)CC(c1ccccc1)(C3)C2)N1CCN(c2ccccc2)CC1	-0.13
CCC(C)N(C)CCN (stereo not drawn)	-0.03
O=C1NC(=S)NC(=O)C1=Cc1ccc(-c2ccccc2)o1	-0.19
O=C(O)c1ccc2[nH]c(C(F)F)nc2c1	-0.01
O=C(CSc1nnc(CC2CCS(=O)(=O)C2)o1)NC1CCCc2ccccc21 (stereo not drawn)	-0.28
NC(=O)c1csc(C(=O)NCCc2cc(F)cc3c2OCOC3)c1	-0.03
NC(=O)c1ccc(COc2ccc3oc4ccccc4c3c2)cc1	-0.01
COc1ccccc1CNC(=O)CN(C)Cc1ccc(SC)cc1	-0.06
O=C1NC(=S)N/C1=C/c1ccc(-c2ccc(Cl)cc2)o1	-0.03
O=C1NC(=S)NC(=O)C1=CNc1ccc(Br)cc1	-0.02
CCOc1cc2c(cc1CNC(=O)NCc1cn(Cc3ccccc3)nc1-c1ccccc1)OC(C)C2 (stereo not drawn)	-0.02
Cc1c(C(C)C)c(Cl)n2c(nc3ccccc32)c1C#N	-0.08
O=C(CN1CCN(C(=O)c2ccc(-c3nc4ccccc4s3)o2)CC1)Nc1cccc(F)c1	-0.13
CN(C)Cc1ccc(C(=O)Nc2cccc(C(=O)NC3CC3)c2)cc1	0.01
NCC1CCCC1N (stereo not drawn)	0.05
Cn1c(SCC(N)=O)nc2ccccc21	-0.13
Cc1sc2ncnc(N3CCCC(C(N)=O)C3)c2c1C (stereo not drawn)	-0.03
O=C(NCCC12CC3CC(C1)CC(CCNC(=O)c1ccc(S(=O)(=O)N4CCOCC4)cc1)(C3)C2)c1ccc(S(=O)(=O)N2CCOCC2)cc1	0.01
COc1cc(C2C(C(=O)c3ccco3)=C(O)C(=O)N2CCCN2CCOCC2)cc(OC)c1OC (stereo not drawn)	0.03
CCOc1ccc(C(NC(=O)c2cc(C(N)=O)cn2C)C(C)C)cc1OCC (stereo not drawn)	0.05
Cc1ccc(-c2sc(-c3ccccc3)nc2CC(=O)Nc2nnc(CC(C)C)s2)cc1	-0.01
C=CCOc1ccc(C2C(C(=O)c3ccc(OCC)cc3)=C(O)C(=O)N2CCN2CCOCC2)cc1 (stereo not drawn)	-0.08
COc1cc2c(N3CCC(c4cc(N)[nH]n4)CC3)ncnc2cc1F	-0.03

Structure (SMILES)	TSA(with NAD+) / Primary screening (TSA) / delta Tm (K)
O=C(CSc1nncn1-c1ccccc1)Nc1ccccc1[N+](=O)[O-]	0.06
NC(=O)c1cnc(Nc2ncnc3oc(-c4ccccc4)cc23)s1	-0.05
COc1ncnc2c1cnn2-c1ccccc1	-0.33
CCn1cc(C(=O)N(C)Cc2ccc(OCc3ccccc3)c(OC)c2)c(=O)c2ccc(C)nc21	-0.08
CNC(=O)CNC(=O)CNC(=O)c1cccs1	-0.32
NC(=O)c1c(NC(=O)CSc2nnc(N3CCCC3)n2C2CC2)sc2c1CCC2	0.08
COCC(CN)OC (stereo not drawn)	-0.19
COc1ccc(CCN2CC(C(=O)OCC(=O)NC(Cc3ccccc3)C(C)=O)CC2=O)cc1OC (stereo not drawn)	-0.13
NC(=O)c1cccc(CN2CCCC2c2ccsc2)c1 (stereo not drawn)	-0.15
CC(Oc1ccc2ccc(=O)oc2c1)C(=O)N1CCc2ccccc21 (stereo not drawn)	-0.23
NC(=O)C1CCN(C(=O)c2[nH]c3ccc(F)cc3c2Cl)CC1	-0.06
O=C(COC(=O)c1ccc(-n2cccc2)cc1)Nc1ccccc1Cc1ccccc1	-0.06
CC(C)C(=O)NN	-0.13
COc1cccc2c1OCC(Nc1cc(-c3nc(C)no3)ccn1)C2 (stereo not drawn)	0.03
CN(c1cccc(Cl)c1)S(=O)(=O)c1cccc(C(=O)Nc2cc(C(N)=O)cc(C(N)=O)c2)c1	-0.01
CCCN(Cc1ccc(C(N)=O)cc1)Cc1nnc(-c2ccco2)o1	-0.22
Cn1c(=O)[nH]c(=O)c2c1nc(N1CCC(C(N)=O)CC1)n2CCSc1nc2ccccc2o1	0.05
CCOc1ccc(C2C(C(=O)c3ccc(C)cc3)=C(O)C(=O)N2CCCN2CCOCC2)cc1 (stereo not drawn)	-0.01
CCOC(=O)c1cnc2ccccc2c1NC1CCN(C(=O)OCC)CC1	-0.18
CCS(=O)(=O)N1CCN(c2ccc(C(N)=O)cc2)CC1	-0.11
O=C(Nc1cnc2ccccc2c1)C(=O)N1CCC(Oc2ccccc2)CC1	0.06
CCCCn1c(N)c(N(CCOC)C(=O)c2cccc(S(=O)(=O)N(C)c3ccccc3)c2)c(=O)[nH]c1=O	-0.06
Cc1csc(N2CCN(c3cc(=O)n4ccccc4n3)CC2)n1	-0.01
NC(=O)CC1CCN(C(=O)c2ccn(-c3cccc(Cl)c3)n2)CC1	-0.03

Structure (SMILES)	TSA(with NAD+) / Primary screening (TSA) / delta Tm (K)
CCOc1cccc(/C=C2/Oc3cc(O)ccc3C2=O)c1OC	0.13
COc1ccc(-n2c(SCc3ccc([N+](=O)[O-])cc3)nnc2-c2ccccc2OC)cc1	-0.15
O=C(CN1CCOCC1)N1CCNCC1	-0.04
CN(c1ccccc1)S(=O)(=O)c1cccc(C(=O)NCCc2c[nH]c3ccccc23)c1	0.17
CCCCC(CNC(=O)OC(C)(C)C)NC(=O)CCCc1nc2ccccc2c(=O)[nH]1 (stereo not drawn)	-0.03
c1ccc(OC2CCN(c3ncnc4c3oc3ccccc34)CC2)nc1	-0.11
CC(C)C(O)c1ccccc1NC(=O)c1cc2ccccc2n1C (stereo not drawn)	0.01
CCN(CC(=O)Nc1ccc(NC(C)=O)cc1)C(=O)CCCSc1nc2ccccc2[nH]1	0.09
COc1cccc(C(C)NCc2ccc3[nH]c(=O)[nH]c3c2)c1 (stereo not drawn)	-0.08
CCc1cc(CN2CCc3cc(OC)c(OC)cc3C2)c(C)cc1O	-0.09
CC1Cc2ccccc2N1S(N)(=O)=O (stereo not drawn)	-0.02
O=C(O)CCn1cc(C=C2C(=O)NC(=O)NC2=O)c(-c2ccc(Br)cc2)n1	-0.26
O=C(OCC(=O)C12CC3CC(CC(C3)C1)C2)c1ccc(N2C(=O)c3ccccc3C2=O)cc1	0.06
CCCNC(=O)Nc1ccc(OC)cc1	-0.08
O=C(O)CC(O)(CC(=O)O)C(=O)O	0.09
COc1ccccc1C1C(C(=O)/C=C/c2ccco2)=C(O)C(=O)N1CCCN1CCOCC1 (stereo not drawn)	-0.18
NC(=O)C1CCCN(c2ncnc3cc(-c4ccc(Br)cc4)sc23)C1 (stereo not drawn)	-0.11
CCCOc1ccc(/C=c2/s/c(=C\C(=O)OCC)n(CC(=O)NCC3CCCO3)c2=O)cc1OCC (stereo not drawn)	0.07
Cc1nn(Cc2ccccc2)c(Cl)c1/C=C/C(=O)OC(C)C(=O)Nc1ncc(Cl)cc1Cl (stereo not drawn)	0.01
Cc1ccc2[nH]c3c(c2c1)CC(C)(C)CC3	-0.01
CC(O)CCCN (stereo not drawn)	-0.11
O=C(COC(=O)C1=COCCO1)NCCc1c[nH]c2ccccc12	-0.18
O=C(Nc1cccc(C(F)(F)F)c1)c1cccc(NC(=O)c2cc3c(cc2[N+](=O)[O-])OCCO3)c1	0.38
CCCNC(=O)CNc1ccccc1OC(F)F	-0.11

Structure (SMILES)	TSA(with NAD+) / Primary screening (TSA) / delta Tm (K)
COc1cc(CN(C)C(=O)Cc2ccc3c(c2)OCCO3)ccc1OCc1ccccc1	-0.14
CCCCn1c(N)c(NC)c(=O)[nH]c1=O	-0.05
CC(C)Cc1cc(NC(=O)Cc2coc(-c3cccs3)n2)n(C)n1	-0.09
CN(C)C(=O)c1ccc2[nH]c3c(c2c1)CCCCC3	-0.03
COC(=O)C(C(=O)c1ccccc1)=C1Nc2ccccc2N1	-0.16
NC(=O)c1cccc2c1CCCN2C(=O)CCCn1c(=O)oc2ccccc21	-0.21
COC(=O)c1ccc(C(=O)NNC(=O)Cc2cn3ccsc3n2)cc1	0.09
CN(c1ccccc1)S(=O)(=O)c1cccc(NC(=O)c2cc(Cl)nc3ccccc23)c1	0.16
Cc1c(C(=O)O)c(=O)oc2cc(F)ccc12	-0.14
O=C(O)CCCCNC(=O)OCc1ccccc1	-0.11
Cc1[nH]c2ccccc2c1CC(=O)Nc1cccc(-c2noc(=O)[nH]2)c1	-0.23
O=C(Nc1ccccc1)c1ccc(CNC(c2ccccc2)c2ccccc2)cc1	0.15
CCNC(=O)C(C)NC(=O)c1cccc(S(=O)(=O)N(C)c2ccc(C)cc2)c1 (stereo not drawn)	0.03
CCOc1cccc(C2C(C(=O)c3cc4ccccc4o3)=C(O)C(=O)N2CCCN2CCOCC2)c1 (stereo not drawn)	0.06
O=C(CCl)c1c(-c2ccc(F)cc2)[nH]c2ccccc12	0.12
Cn1cc(C2CCN(c3ncnc4ccccc34)CC2)cn1	-0.04
COC(=O)CCCNC(=O)c1cc(-c2ccco2)nc2c(C(N)=O)ncn12	-0.02
Nn1c(S)nnc1-c1ccccc1F	-0.29
CC1CCc2c(sc3ncnc(N4CCN(Cc5csc(-c6ccco6)n5)CC4)c23)C1 (stereo not drawn)	-0.06
O=C(Cn1cnc2sc3c(c2c1=O)CCC3)N1CCc2ccccc2C1	-0.16
Cc1ccccc1C1CN(C(=O)C2CCc3n[n-]nc3C2)CCO1 (stereo not drawn)	-0.19

Random excerpt: four entries already listed.
Structure (SMILES)	TSA(with NAD+) / Primary screening (TSA) / delta Tm (K)
CCCCn1c(N)c(NC)c(=O)[nH]c1=O	-0.05
Cc1c(C(=O)O)c(=O)oc2cc(F)ccc12	-0.14
CN(C)C(=O)c1ccc2[nH]c3c(c2c1)CCCCC3	-0.03
CCNC(=O)C(C)NC(=O)c1cccc(S(=O)(=O)N(C)c2ccc(C)cc2)c1 (stereo not drawn)	0.03
